Results on one molecule are retold here after PMC6331435.

The test has as its target T1, DROSHA (human (endogenous in K562)), Q9NRR4.
T1 chain: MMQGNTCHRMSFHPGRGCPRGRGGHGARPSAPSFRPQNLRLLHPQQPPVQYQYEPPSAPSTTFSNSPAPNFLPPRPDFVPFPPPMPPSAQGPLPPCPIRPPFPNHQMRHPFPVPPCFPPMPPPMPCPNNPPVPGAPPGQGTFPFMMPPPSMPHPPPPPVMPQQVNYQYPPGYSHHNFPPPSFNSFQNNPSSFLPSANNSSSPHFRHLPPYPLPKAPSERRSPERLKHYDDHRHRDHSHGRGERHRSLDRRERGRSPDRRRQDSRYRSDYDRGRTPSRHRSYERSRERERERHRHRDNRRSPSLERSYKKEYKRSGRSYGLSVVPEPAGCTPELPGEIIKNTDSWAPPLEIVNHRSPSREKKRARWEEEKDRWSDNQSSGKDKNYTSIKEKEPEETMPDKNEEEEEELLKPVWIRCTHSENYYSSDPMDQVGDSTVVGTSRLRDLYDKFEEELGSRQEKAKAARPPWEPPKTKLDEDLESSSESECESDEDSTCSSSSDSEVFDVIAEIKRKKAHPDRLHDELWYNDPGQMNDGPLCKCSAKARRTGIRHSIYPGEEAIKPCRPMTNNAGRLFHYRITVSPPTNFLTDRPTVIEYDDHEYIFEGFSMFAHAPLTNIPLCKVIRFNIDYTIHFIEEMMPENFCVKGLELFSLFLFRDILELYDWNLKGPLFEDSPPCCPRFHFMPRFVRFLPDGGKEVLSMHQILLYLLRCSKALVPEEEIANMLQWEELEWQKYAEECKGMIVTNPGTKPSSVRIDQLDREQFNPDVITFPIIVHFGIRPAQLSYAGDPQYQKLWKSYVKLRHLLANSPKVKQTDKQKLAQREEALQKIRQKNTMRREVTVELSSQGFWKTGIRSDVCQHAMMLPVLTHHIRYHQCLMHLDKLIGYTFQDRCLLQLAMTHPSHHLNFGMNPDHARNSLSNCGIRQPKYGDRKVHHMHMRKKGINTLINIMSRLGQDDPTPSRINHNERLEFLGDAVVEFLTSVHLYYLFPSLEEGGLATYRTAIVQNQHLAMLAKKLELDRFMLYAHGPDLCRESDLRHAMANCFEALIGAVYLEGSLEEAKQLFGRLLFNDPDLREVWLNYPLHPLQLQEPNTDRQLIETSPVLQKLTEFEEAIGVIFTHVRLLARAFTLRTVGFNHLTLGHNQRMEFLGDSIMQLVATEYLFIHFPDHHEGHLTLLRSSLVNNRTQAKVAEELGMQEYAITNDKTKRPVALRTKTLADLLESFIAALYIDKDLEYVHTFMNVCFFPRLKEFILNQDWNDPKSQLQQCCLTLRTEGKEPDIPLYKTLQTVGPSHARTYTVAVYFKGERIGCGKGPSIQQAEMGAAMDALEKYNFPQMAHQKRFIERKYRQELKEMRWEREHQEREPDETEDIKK
As to the kind of experiment: co-IP; K562 lysate (20 mM Tris-HCl pH 8.0, 125 mM NaCl, 1% NP-40, 2 mM EDTA); IP with DROSHA antibody overnight at 4 °C, Dynabeads Protein G; rabbit isotype IgG as control; with and without RNase A treatment; blot for ADAR1 and DROSHA. The note with it: remark: other sources report otherwise.

No constants are given. Whether binding was seen depends on the method and setting. Binding seen in cells or lysates may run through a third protein. Some binding calls cover weakened binding; strength is not graded here.

B1: ADAR1, P55265 1-1226 (protein)
chain: MNPRQGYSLSGYYTHPFQGYEHRQLRYQQPGPGSSPSSFLLKQIEFLKGQLPEAPVIGKQTPSLPPSLPGLRPRFPVLLASSTRGRQVDIRGVPRGVHLRSQGLQRGFQHPSPRGRSLPQRGVDCLSSHFQELSIYQDQEQRILKFLEELGEGKATTAHDLSGKLGTPKKEINRVLYSLAKKGKLQKEAGTPPLWKIAVSTQAWNQHSGVVRPDGHSQGAPNSDPSLEPEDRNSTSVSEDLLEPFIAVSAQAWNQHSGVVRPDSHSQGSPNSDPGLEPEDSNSTSALEDPLEFLDMAEIKEKICDYLFNVSDSSALNLAKNIGLTKARDINAVLIDMERQGDVYRQGTTPPIWHLTDKKRERMQIKRNTNSVPETAPAAIPETKRNAEFLTCNIPTSNASNNMVTTEKVENGQEPVIKLENRQEARPEPARLKPPVHYNGPSKAGYVDFENGQWATDDIPDDLNSIRAAPGEFRAIMEMPSFYSHGLPRCSPYKKLTECQLKNPISGLLEYAQFASQTCEFNMIEQSGPPHEPRFKFQVVINGREFPPAEAGSKKVAKQDAAMKAMTILLEEAKAKDSGKSEESSHYSTEKESEKTAESQTPTPSATSFFSGKSPVTTLLECMHKLGNSCEFRLLSKEGPAHEPKFQYCVAVGAQTFPSVSAPSKKVAKQMAAEEAMKALHGEATNSMASDNQPEGMISESLDNLESMMPNKVRKIGELVRYLNTNPVGGLLEYARSHGFAAEFKLVDQSGPPHEPKFVYQAKVGGRWFPAVCAHSKKQGKQEAADAALRVLIGENEKAERMGFTEVTPVTGASLRRTMLLLSRSPEAQPKTLPLTGSTFHDQIAMLSHRCFNTLTNSFQPSLLGRKILAAIIMKKDSEDMGVVVSLGTGNRCVKGDSLSLKGETVNDCHAEIISRRGFIRFLYSELMKYNSQTAKDSIFEPAKGGEKLQIKKTVSFHLYISTAPCGDGALFDKSCSDRAMESTESRHYPVFENPKQGKLRTKVENGEGTIPVESSDIVPTWDGIRLGERLRTMSCSDKILRWNVLGLQGALLTHFLQPIYLKSVTLGYLFSQGHLTRAICCRVTRDGSAFEDGLRHPFIVNHPKVGRVSIYDSKRQSGKTKETSVNWCLADGYDLEILDGTRGTVDGPRNELSRVSKKNIFLLFKKLCSFRYRRDLLRLSYGEAKKAARDYETAKNYFKKGLKDMGYGNWISKPQEEKNFYLCPV
B1: the binding entry is on record as “binds”.
